Assay results from paper PMC7819943, “Rice protein-binding microarrays: a tool to detect cis-acting elements near promoter regions in rice”.
The list shows a part of the results.

Each sequence was assayed against T1, OsSMF1 (Oryza sativa, UniProt Q6ZLB0 1-436) (assay: protein-binding microarray (RPBM); PBS, 2% BSA, 51.3 ng/ul salmon testes DNA, 50 uM zinc acetate, 200 nM TF, 25 C, 1 h; high values mean tight binding). Settings: protein: recombinant; tags: N-terminal polyhistidine and DsRed monomer fusion (pET32a); chain copies: 2; label: CyDye5-dUTP incorporated in the synthesized complementary strand; 3' TTTTT single-stranded linker to array surface; dsDNA, one strand shown.
T1 sequence: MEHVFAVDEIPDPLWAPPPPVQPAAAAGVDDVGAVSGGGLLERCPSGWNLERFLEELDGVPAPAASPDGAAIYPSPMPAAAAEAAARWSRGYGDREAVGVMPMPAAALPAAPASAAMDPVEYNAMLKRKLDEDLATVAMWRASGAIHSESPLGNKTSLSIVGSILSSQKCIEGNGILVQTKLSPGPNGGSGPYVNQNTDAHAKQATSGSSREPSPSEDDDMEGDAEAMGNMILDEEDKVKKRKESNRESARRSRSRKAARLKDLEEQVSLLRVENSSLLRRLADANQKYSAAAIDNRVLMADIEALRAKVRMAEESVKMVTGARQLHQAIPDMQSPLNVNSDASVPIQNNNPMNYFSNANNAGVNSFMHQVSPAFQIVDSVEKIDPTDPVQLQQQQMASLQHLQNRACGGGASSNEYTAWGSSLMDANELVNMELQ
Outline: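 Transcription factors were made in E. coli BL21-CodonPlus as N-terminal fusions to a polyhistidine tag and DsRed, then purified on Ni–NTA. After primer extension with Cy5-dUTP and blocking with 2% BSA, a custom Agilent array was exposed for 1 h at 25 °C to 200 nM protein in PBS, 2% BSA, salmon testes DNA and 50 µM zinc acetate. Washed arrays were scanned on an Axon 4000B, and the binding signal is per-feature fluorescence intensity in arbitrary units.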

Q: “CACTTGATGTCTTTATTCCCTTTCAAACGTGTCAAAAGTCCGGAGTCACCTAGTGCAG” was tested. Which binding signal did it give?
A: 4240 fluorescence intensity (a.u.)

Q: “ATGCTATACGTCACATGAAGCCTCACGCCATCATGTACTGCGGAGTCACCTAGTGCAG” was tested. Which binding signal did it give?
A: 4560 fluorescence intensity (a.u.)

Q: For “CATGGGCTTGAACTGGCTTTTGTGTATTTTGCAAGGCTTGCGGAGTCACCTAGTGCAG”, which binding signal is on record?
A: 3750 fluorescence intensity (a.u.)

Q: “TGACGACCGGTCGCCGTCGACGCGGCAGTCTTCGCCGGTGCGGAGTCACCTAGTGCAG” was tested. Which binding signal did it give?
A: 3250 fluorescence intensity (a.u.)

Q: How did the binding signal turn out when “TCGTTGCATTCCCACGCGTATTTAACACAACACTTTTAATCGGAGTCACCTAGTGCAG” was run?
A: 3430 fluorescence intensity (a.u.)

Q: “CGTATTAACCATTACACCTCATGTCCCAATTAATTTAACGCGGAGTCACCTAGTGCAG” was tested. Which binding signal did it give?
A: 4420 fluorescence intensity (a.u.)

Q: How did the binding signal turn out when “ACGATGATGAAGTTCCAAAGCATGGTGAATCTGTTATAGGCGGAGTCACCTAGTGCAG” was run?
A: 3230 fluorescence intensity (a.u.)

Q: How did the binding signal turn out when “CTCGATCTCGCCGTCGACGACGTTGCTGCTGCTGGTGGTGCGGAGTCACCTAGTGCAG” was run?
A: 3510 fluorescence intensity (a.u.)

Q: How did the binding signal turn out when “TTATACAACTTTCTATGGATCTTCATGATGCTAACTTCCACGGAGTCACCTAGTGCAG” was run?
A: 4700 fluorescence intensity (a.u.)

Q: With “ACAGCATTACTACGCCATTGCTACGGTCATCATCAATCACCGGAGTCACCTAGTGCAG” as the sequence, how does the binding signal read?
A: 5040 fluorescence intensity (a.u.)

Q: “GAGAATTTTGTAATTTGAATTGAGTAAATTTCATCATTAGCGGAGTCACCTAGTGCAG” was tested. Which binding signal did it give?
A: 28100 fluorescence intensity (a.u.)

Q: For “CCCCATTGACATACACACAATATGTCATATATATTCATAACGGAGTCACCTAGTGCAG”, which binding signal is on record?
A: 5340 fluorescence intensity (a.u.)

Q: Which binding signal does the source give for “ACGTGGTTCCCACGCTGACTCAGCTGCCACGTCGGACAAACGGAGTCACCTAGTGCAG” here?
A: 29000 fluorescence intensity (a.u.)

Q: Which binding signal does the source give for “TTCAAATATATGTCCATATATCCGATGTGACAACGAAACCCGGAGTCACCTAGTGCAG” here?
A: 3330 fluorescence intensity (a.u.)

Q: Which binding signal does the source give for “GGTGACCGTCGTCGGCGACGTGGACAGCAGGGTGCTCGTCCGGAGTCACCTAGTGCAG” here?
A: 3720 fluorescence intensity (a.u.)

Q: Which binding signal does the source give for “CTCGAGACCTTCATGTTCTTCCTCATTCGCTGACACGTGGCGGAGTCACCTAGTGCAG” here?
A: 18200 fluorescence intensity (a.u.)

Q: With “ACTTCTCGCTTCCGCTCCACGCCTCGCTGCCTGCCGCTCCCGGAGTCACCTAGTGCAG” as the sequence, how does the binding signal read?
A: 3180 fluorescence intensity (a.u.)

Q: With “CTGAGGCGGCCTGGGCGTCTTGGGCACGAAGACGCGCGTGCGGAGTCACCTAGTGCAG” as the sequence, how does the binding signal read?
A: 29100 fluorescence intensity (a.u.)

Q: For “TTATCCACATAAGCATAAATATGATGTGGCAATATATATACGGAGTCACCTAGTGCAG”, which binding signal is on record?
A: 6260 fluorescence intensity (a.u.)

Q: “AAATTATGTCATTTTGATCAACAGTTGGTACAGTAGTACACGGAGTCACCTAGTGCAG” was tested. Which binding signal did it give?
A: 48000 fluorescence intensity (a.u.)

Q: How did the binding signal turn out when “TTAAAGTGTGGCTTTACCTTTTGTTAGCCACATAATCACGCGGAGTCACCTAGTGCAG” was run?
A: 4340 fluorescence intensity (a.u.)

Q: “GGTGGTGGACTAGGTAACTTTTGCTTAATCCCTTCATATGCGGAGTCACCTAGTGCAG” was tested. Which binding signal did it give?
A: 3530 fluorescence intensity (a.u.)

Q: “AAAACCGGCGGCTGCCTCGCCAAAACCCAATGCAAGGACGCGGAGTCACCTAGTGCAG” was tested. Which binding signal did it give?
A: 21000 fluorescence intensity (a.u.)
